# According to the supplement of paper PMC7666118:
# Chains of the proteins cited; added tags and fusions are not shown. Lines headed by an entry give the natural chain unless they say otherwise; changes in a name come on top.
# UniProt O75037: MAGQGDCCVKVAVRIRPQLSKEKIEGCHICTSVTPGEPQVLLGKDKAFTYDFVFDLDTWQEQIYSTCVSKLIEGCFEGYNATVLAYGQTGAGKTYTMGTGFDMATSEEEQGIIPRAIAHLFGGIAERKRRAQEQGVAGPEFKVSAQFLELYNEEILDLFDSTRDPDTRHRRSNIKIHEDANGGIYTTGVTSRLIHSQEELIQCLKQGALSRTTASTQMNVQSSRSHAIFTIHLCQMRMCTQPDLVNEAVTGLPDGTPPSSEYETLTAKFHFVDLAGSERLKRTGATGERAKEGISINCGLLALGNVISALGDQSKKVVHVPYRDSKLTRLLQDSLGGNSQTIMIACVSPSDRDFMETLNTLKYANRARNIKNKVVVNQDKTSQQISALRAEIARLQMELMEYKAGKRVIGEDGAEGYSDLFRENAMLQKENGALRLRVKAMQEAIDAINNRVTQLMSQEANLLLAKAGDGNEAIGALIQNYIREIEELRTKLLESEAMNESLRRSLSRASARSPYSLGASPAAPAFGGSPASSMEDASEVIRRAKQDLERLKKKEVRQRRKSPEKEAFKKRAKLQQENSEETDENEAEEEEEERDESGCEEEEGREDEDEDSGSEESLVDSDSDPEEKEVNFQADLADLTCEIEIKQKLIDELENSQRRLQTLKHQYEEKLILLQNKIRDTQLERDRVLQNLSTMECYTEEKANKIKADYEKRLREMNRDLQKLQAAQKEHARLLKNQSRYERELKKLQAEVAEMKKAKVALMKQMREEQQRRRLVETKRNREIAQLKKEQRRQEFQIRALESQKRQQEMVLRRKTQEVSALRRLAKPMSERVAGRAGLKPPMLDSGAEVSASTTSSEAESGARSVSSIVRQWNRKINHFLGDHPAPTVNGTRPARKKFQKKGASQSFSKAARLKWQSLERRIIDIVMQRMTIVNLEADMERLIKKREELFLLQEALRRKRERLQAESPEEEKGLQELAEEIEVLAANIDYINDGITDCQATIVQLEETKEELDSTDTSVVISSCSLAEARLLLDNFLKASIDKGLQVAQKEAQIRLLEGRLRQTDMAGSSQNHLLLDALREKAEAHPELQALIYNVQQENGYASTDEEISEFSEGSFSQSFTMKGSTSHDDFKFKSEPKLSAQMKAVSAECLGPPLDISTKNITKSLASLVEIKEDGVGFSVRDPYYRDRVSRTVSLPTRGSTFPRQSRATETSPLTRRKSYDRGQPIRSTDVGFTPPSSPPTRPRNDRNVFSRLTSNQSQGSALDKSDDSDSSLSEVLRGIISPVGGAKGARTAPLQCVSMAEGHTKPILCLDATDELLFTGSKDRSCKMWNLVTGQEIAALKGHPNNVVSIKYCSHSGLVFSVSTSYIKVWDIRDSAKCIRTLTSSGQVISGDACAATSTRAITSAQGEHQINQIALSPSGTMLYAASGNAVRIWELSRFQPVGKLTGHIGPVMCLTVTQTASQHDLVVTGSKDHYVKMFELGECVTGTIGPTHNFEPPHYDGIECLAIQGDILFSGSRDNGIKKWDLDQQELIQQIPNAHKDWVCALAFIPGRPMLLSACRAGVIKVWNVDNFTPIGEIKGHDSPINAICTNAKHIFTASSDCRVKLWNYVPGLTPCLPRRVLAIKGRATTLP
# UniProt Q96G23: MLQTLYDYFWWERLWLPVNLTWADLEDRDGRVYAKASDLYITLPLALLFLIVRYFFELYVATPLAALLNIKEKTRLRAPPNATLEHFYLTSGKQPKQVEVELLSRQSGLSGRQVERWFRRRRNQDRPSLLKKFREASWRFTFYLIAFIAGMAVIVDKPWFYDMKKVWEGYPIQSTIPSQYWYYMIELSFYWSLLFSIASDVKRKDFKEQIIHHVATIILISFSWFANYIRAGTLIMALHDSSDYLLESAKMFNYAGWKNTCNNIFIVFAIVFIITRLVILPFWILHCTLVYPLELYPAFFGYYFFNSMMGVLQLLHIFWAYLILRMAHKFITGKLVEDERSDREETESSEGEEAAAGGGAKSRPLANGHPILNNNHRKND
# UniProt Q5TH69: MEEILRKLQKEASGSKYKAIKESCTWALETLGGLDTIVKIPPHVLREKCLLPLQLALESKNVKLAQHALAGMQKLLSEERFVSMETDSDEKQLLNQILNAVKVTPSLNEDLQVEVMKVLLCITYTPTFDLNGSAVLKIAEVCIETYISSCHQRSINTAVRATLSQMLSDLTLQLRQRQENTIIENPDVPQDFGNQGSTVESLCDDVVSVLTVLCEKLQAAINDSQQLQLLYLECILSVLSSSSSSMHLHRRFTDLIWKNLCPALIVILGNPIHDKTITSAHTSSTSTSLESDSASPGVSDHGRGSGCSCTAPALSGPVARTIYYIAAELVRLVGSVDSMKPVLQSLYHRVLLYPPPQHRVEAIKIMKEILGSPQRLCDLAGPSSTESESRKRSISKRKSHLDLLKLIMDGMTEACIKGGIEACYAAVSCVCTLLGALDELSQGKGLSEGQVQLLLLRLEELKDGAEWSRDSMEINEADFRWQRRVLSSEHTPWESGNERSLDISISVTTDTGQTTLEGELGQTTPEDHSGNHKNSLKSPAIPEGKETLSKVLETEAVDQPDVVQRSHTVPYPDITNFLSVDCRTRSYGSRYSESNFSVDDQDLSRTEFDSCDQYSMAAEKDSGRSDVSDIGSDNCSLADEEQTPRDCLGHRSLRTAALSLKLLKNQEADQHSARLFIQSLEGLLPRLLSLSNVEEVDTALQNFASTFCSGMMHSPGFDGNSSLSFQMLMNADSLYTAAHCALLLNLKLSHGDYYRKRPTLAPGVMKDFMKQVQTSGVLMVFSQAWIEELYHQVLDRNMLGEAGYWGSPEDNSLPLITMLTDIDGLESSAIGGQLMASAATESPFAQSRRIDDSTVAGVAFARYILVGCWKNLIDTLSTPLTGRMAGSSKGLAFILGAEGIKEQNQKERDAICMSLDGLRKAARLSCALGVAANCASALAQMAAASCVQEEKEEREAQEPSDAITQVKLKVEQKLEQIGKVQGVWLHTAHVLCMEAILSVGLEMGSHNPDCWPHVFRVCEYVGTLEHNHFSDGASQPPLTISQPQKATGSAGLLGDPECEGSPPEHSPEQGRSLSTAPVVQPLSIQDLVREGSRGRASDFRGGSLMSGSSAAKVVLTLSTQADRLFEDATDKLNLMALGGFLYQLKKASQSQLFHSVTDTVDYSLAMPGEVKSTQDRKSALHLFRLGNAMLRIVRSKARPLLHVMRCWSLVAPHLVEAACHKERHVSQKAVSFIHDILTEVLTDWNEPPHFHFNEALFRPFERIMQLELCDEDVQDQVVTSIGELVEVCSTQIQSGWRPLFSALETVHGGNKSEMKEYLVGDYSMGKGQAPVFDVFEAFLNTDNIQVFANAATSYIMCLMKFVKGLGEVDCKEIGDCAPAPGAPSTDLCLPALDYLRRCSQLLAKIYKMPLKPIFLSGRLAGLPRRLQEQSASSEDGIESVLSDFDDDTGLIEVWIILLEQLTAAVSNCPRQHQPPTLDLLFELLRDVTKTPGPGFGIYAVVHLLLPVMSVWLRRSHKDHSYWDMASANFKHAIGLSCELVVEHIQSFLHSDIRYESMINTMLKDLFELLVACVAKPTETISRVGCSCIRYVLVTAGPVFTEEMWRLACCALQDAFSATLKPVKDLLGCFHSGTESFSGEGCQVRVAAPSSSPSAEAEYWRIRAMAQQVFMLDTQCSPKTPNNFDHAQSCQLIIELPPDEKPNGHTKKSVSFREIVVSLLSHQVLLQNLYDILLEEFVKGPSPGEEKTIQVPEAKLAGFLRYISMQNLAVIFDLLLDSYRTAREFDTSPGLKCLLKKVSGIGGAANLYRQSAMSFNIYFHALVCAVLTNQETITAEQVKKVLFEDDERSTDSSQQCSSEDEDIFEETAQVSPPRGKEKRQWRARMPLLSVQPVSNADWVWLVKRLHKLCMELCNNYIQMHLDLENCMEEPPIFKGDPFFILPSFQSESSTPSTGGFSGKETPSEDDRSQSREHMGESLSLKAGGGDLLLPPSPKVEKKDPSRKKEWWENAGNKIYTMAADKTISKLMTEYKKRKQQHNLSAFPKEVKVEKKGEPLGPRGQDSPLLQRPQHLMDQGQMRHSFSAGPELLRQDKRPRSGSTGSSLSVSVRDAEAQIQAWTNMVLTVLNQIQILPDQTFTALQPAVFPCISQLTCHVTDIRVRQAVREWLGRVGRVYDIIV
# UniProt Q8NC56: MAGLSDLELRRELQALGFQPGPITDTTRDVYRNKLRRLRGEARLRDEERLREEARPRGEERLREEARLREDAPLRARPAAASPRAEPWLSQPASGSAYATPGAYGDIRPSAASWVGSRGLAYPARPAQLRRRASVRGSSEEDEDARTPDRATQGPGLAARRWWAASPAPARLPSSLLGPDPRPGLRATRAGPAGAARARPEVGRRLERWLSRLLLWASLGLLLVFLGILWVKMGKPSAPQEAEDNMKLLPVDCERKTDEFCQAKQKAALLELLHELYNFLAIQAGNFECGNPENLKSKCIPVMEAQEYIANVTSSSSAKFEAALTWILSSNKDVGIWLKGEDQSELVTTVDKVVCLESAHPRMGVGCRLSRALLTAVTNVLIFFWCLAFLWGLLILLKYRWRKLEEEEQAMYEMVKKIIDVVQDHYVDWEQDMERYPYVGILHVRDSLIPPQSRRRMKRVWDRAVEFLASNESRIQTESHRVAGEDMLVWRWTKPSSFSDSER
# UniProt Q9H0U3: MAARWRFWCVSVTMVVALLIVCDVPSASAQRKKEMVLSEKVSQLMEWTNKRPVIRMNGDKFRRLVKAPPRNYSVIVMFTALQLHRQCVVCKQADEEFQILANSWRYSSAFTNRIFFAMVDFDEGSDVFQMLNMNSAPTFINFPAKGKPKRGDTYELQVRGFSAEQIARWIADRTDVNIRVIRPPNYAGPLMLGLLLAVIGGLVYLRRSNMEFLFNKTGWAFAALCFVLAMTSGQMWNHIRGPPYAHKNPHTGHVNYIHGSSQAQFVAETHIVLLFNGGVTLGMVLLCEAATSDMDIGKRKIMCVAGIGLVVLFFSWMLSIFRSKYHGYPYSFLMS
# UniProt Q13094: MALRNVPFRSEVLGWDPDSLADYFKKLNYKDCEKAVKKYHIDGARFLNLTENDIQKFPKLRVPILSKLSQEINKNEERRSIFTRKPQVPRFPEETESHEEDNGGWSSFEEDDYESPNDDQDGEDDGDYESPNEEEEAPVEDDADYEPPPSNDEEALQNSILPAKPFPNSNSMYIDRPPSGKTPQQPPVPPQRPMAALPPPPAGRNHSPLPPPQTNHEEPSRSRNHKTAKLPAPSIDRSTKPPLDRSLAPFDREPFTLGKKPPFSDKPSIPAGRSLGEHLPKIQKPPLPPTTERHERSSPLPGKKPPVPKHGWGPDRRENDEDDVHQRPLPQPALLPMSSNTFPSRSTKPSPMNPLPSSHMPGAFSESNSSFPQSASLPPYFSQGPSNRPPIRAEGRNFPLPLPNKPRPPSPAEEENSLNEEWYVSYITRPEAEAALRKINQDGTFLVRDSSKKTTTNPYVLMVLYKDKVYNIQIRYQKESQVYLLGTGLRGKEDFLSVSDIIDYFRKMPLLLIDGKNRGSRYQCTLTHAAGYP
# UniProt P62312: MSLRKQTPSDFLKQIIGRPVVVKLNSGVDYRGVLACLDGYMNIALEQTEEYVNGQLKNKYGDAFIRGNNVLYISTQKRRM
# UniProt Q96S90: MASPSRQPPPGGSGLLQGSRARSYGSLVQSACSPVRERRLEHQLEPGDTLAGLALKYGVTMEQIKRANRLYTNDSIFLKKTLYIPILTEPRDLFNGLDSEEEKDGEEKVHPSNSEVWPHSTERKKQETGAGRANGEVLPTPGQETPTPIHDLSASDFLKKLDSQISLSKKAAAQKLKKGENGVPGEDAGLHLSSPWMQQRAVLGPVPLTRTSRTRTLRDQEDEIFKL
# UniProt O95777: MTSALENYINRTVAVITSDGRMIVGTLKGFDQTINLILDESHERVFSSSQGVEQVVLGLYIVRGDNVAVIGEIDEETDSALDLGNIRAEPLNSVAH
# UniProt Q643R3: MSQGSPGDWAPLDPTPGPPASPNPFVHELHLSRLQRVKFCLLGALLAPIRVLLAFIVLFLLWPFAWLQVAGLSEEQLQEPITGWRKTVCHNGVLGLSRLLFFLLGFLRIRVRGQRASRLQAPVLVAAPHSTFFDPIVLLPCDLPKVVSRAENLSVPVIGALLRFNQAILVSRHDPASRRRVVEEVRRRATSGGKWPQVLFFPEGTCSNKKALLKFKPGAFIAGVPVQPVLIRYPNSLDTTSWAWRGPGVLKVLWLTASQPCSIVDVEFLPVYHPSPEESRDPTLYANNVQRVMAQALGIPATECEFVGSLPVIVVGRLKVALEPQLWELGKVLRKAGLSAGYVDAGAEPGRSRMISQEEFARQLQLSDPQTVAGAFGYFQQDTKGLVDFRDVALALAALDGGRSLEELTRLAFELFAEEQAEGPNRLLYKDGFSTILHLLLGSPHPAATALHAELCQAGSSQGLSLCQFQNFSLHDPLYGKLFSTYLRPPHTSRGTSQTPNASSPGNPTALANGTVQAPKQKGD
# The other results are listed elsewhere or left out.
# Compound: COc1ccc(Cn2ccc3ccc(C(=O)NO)cc32)cc1
# Experiment: dose-dependent thermal stabilisation call (2D-TPP, DLPTP, 10% FDR) (binary (1 = stabilised)); higher = stabilised by the compound
# Settings: system: HL-60 intact cells; concentration range 0.04-10 µM
row,Target,dose-dependent thermal stabilisation call
1,LRRFIP1 (UniProt Q32MZ4),inactive: 0
2,LEMD3 (UniProt Q9Y2U8),inactive: 0
3,LOC100129759,inactive: 0
4,LOC203547,inactive: 0
5,LANCL1 (UniProt O43813),inactive: 0
6,KIF21B (UniProt O75037),inactive: 0
7,LOC100128155,inactive: 0
8,LUC7L2 (UniProt Q9Y383),inactive: 0
9,LOC653156,inactive: 0
10,LGALS8 (UniProt O00214),inactive: 0
11,LAS1L (UniProt Q9Y4W2),inactive: 0
12,LUZP1 (UniProt Q86V48),inactive: 0
13,LASS2 (UniProt Q96G23),inactive: 0
14,LOC348262,inactive: 0
15,L3MBTL2 (UniProt Q969R5),inactive: 0
16,MAN1C1 (UniProt Q9NR34),inactive: 0
17,LOC388474,inactive: 0
18,KLHL26 (UniProt Q53HC5),inactive: 0
19,KIAA1244 (UniProt Q5TH69),inactive: 0

row,Target,dose-dependent thermal stabilisation call
1,LEMD2 (UniProt Q8NC56),inactive: 0
2,MAGT1 (UniProt Q9H0U3),inactive: 0
3,LCP2 (UniProt Q13094),inactive: 0
4,LSM6 (UniProt P62312),inactive: 0
5,KLC4 (UniProt Q9NSK0),inactive: 0
6,LOC387787,inactive: 0
7,LYSMD1 (UniProt Q96S90),inactive: 0
8,KLHDC4 (UniProt Q8TBB5),inactive: 0
9,MACROD1 (UniProt Q9BQ69),inactive: 0
10,LRRC8A (UniProt Q8IWT6),inactive: 0
11,KPNA6 (UniProt O60684),inactive: 0
12,LSM8 (UniProt O95777),inactive: 0
13,LONP1 (UniProt P36776),inactive: 0
14,LPCAT4 (UniProt Q643R3),inactive: 0
15,LPP (UniProt Q93052),inactive: 0
16,KIF1B (UniProt O60333),inactive: 0
17,LOC90379,inactive: 0
18,LEPRE1 (UniProt Q32P28),inactive: 0

# A different layout for part of the listing above.
row	Target	dose-dependent thermal stabilisation call
7	LOC100128155	inactive: 0
8	LUC7L2 (UniProt Q9Y383)	inactive: 0
9	LOC653156	inactive: 0
10	LGALS8 (UniProt O00214)	inactive: 0
11	LAS1L (UniProt Q9Y4W2)	inactive: 0
12	LUZP1 (UniProt Q86V48)	inactive: 0
13	LASS2 (UniProt Q96G23)	inactive: 0
